Laboratory results: PubChem BioAssay AID1671195 (Yale University, 2021)

Purpose: 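Regulators of LDL receptor activity judged by labelled LDL uptake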 (primary screen)
Cells: human Huh7 hepatoma cells
Reagent: siRNA pool against human genes, 18 nM
Timing: about 2 to 2.5 days of knockdown, then 8 h LDL uptake
Treatment: DiI-labelled LDL at 30 µg/ml for 8 h, in lipoprotein-deficient serum medium
Measurement: 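Per-cell DiI-LDL intensity by automated imaging; well means scaled to the plate median and given as a robust z-score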
Scale: robust z-score: higher = more LDL uptake after knockdown
Hit rule: 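a gene counts as active if at least two replicate z-scores exceed ±2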
The deposit covers about 22,000 reagents; below is a part drawn at random. About 1,510 of all reagents (6.9%) were called active. 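Active includes knockdowns raising or lowering LDL uptake; positive z-scores mean more uptake, negative mean less.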 Entries without a mark were called inactive.

no.	Target gene	robust z-score, replicate 1	robust z-score, replicate 2	robust z-score, replicate 3
1	PARD3	0.301	0.387	0.396
2	GCH1	1.46	1.04	1.75
3	PRDX6	-2.79 (active)	-2.74	-2.77
4	TRPC4AP	0.514	0.391	0.159
5	OR1K1	0.556	1.36	1.08
6	OLFML3	1.25	-0.0355	0.0431
7	DENND10P1	-0.582	-0.0118	0.926
8	PRPH	2.33 (active)	2.62	1.33
9	HPGDS	1.87	0.351	1.66
10	LOC389085 (retired record)	0.0521	0.19	0.38
11	CPN1	0.602	0.107	-2.46
12	CAPN5	-0.745	-1.17	-1.11
13	LINC02209	-0.515	-1	-1.13
14	RBM45	0.417	0.254	-0.129
15	LOC391730 (retired record)	0.129	-0.254	-0.272
16	RBM43	-0.651	-0.567	-0.552
17	MAGEB4	1.2	0.804	0.93

An excerpt of the results above:
no.	Target gene	robust z-score, replicate 1	robust z-score, replicate 2	robust z-score, replicate 3
11	CPN1	0.602	0.107	-2.46
12	CAPN5	-0.745	-1.17	-1.11
13	LINC02209	-0.515	-1	-1.13
14	RBM45	0.417	0.254	-0.129

Further records follow:
no.	Target gene	robust z-score, replicate 1	robust z-score, replicate 2	robust z-score, replicate 3
18	PTCHD3	2.55 (active)	2.86	1.83
19	DPYD	0.688	0.741	0.956
20	DMP1	0.531	0.998	-1.03
21	FST	-0.00454	0.058	-0.136
22	POU2AF2	1.04	1.14	1.28
23	LOC440954 (retired record)	0.0257	0.568	1.02
24	NT5C	-0.599	-0.035	-0.772
25	EPB41L4A-AS1	0.335	-0.407	-0.056
26	IL17B	0.0154	0.64	-1.19
27	ZNF581	-1.42	-1.55	-0.746
28	LOC440960 (retired record)	1.02	1.11	1.07
29	LOC401188 (retired record)	0.49	-0.132	-0.228
30	TWSG1	0.461	0.0125	-0.0957
31	SDCCAG8	-0.468	-0.496	-1.32
32	ZNF224	0.756	1.41	0.336
33	LOC400707 (retired record)	-1.14	-1.81	-1.11
34	LOC390812 (retired record)	-0.782	-0.685	-0.775
35	RBM46	-0.794	-0.699	-0.415
36	TFG	0.602	0.846	-0.447
37	G6PC3	-0.154	-0.233	-0.414
38	ST3GAL6	-0.447	-0.625	-0.0641
39	KIF21B	0.785	0.958	0.896
40	SHE	1.27	0.562	-0.312
41	DLAT	0.585	0.954	0.473
42	CSAD	-0.749	-0.0937	-0.541
43	LOC401212 (retired record)	0.0108	0.0567	0.263
44	LIPT1	-0.0352	-0.177	0.104
45	ZDHHC9	0.171	-0.0872	0.107
46	TNFRSF10A	-3.31	0.592	0.299
